According to patent publication US8618097B2, “Pyrimidyl cyclopentanes as AKT protein kinase inhibitors” (Array Biopharma, Inc., priority 2007, dated 2013):
Some entries share one result that the patent states for a list of compounds.

Protein sequences, listed by entry. Tags and fused reporters are not part of them. Lines headed by an entry give the natural chain unless they say otherwise; changes in a name come on top.
UniProt P31749: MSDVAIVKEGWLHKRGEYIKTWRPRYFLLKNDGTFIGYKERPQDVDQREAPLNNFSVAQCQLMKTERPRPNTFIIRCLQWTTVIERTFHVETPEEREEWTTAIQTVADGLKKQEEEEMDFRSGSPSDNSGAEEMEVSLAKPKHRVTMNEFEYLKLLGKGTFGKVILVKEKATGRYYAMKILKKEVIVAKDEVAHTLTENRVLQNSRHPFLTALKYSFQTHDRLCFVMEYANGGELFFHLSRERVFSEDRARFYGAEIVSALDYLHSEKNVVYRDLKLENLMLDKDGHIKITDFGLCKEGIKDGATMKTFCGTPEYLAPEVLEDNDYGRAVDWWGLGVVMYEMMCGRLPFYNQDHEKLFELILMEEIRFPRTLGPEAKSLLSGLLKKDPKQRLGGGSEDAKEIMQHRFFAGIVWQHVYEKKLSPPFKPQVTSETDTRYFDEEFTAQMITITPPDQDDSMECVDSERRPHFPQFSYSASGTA

Target: full-length human recombinant active AKT-1 (Homo sapiens, UniProt P31749)
Test: AKT-1 Kinase Assay (IMAP fluorescence polarization)
Format: biochemical
Details: phosphorylation of fluorescently-labeled peptide (Crosstide) by AKT-1, fluorescent polarization, IMAP kit

Compound | IC50 [µM]
C[C@@H]1C[C@@H](O)c2ncnc(N3CCN(C(=O)[C@@H](c4ccc(Cl)s4)[C@@H]4CCCN4)CC3)c21 [Example 41, (S)-2-(5-chlorothiophen-2-yl)-1-(4-((5R,7R)-7-hydroxy-5-methyl-6,7-dihydro-5H-cyclopenta[d]pyrimidin-4-yl)piperazin-1-yl)-2-((S)-pyrrolidin-2-yl)ethanone] | < 1
C[C@@H]1C[C@H](O)c2ncnc(N3CCN(C(=O)[C@@H](c4ccc(Cl)s4)[C@@H]4CCCN4)CC3)c21 [Example 42, (S)-2-(5-chlorothiophen-2-yl)-1-(4-((5R,7S)-7-hydroxy-5-methyl-6,7-dihydro-5H-cyclopenta[d]pyrimidin-4-yl)piperazin-1-yl)-2-((S)-pyrrolidin-2-yl)ethanone] | < 1
C[C@@H]1C[C@@H](O)c2ncnc(N3CCN(C(=O)[C@@H](c4ccc(Cl)cc4)[C@@H]4CCCN4)C[C@@H]3C)c21 [Example 43, (S)-2-(4-chlorophenyl)-1-((S)-4-((5R,7R)-7-hydroxy-5-methyl-6,7-dihydro-5H-cyclopenta[d]pyrimidin-4-yl)-3-methylpiperazin-1-yl)-2-((S)-pyrrolidin-2-yl)ethanone] | < 1
C[C@@H]1C[C@@](C)(O)c2ncnc(N3CCN(C(=O)[C@@H](c4ccc(C(F)(F)F)cc4)[C@@H]4CCCN4)CC3)c21 [Example 44, (S)-1-(4-((5R,7R)-7-hydroxy-5,7-dimethyl-6,7-dihydro-5H-cyclopenta[d]pyrimidin-4-yl)piperazin-1-yl)-2-((S)-pyrrolidin-2-yl)-2-(4-(trifluoromethyl)phenyl)ethanone] | < 1
C[C@@H]1C[C@@H](O)c2ncnc(N3CCN(C(=O)[C@@H](c4ccc(Cl)s4)[C@@H]4CCCN4C)CC3)c21 [Example 45, (S)-2-(5-chlorothiophen-2-yl)-1-(4-((5R,7R)-7-hydroxy-5-methyl-6,7-dihydro-5H-cyclopenta[d]pyrimidin-4-yl)piperazin-1-yl)-2-((S)-1-methylpyrrolidin-2-yl)ethanone] | < 1
C[C@@H]1C[C@H](O)c2ncnc(N3CCN(C(=O)[C@@H](c4ccc(Cl)s4)[C@@H]4CCCN4C)CC3)c21 [Example 46, (S)-2-(5-chlorothiophen-2-yl)-1-(4-((5R,7S)-7-hydroxy-5-methyl-6,7-dihydro-5H-cyclopenta[d]pyrimidin-4-yl)piperazin-1-yl)-2-((S)-1-methylpyrrolidin-2-yl)ethanone] | < 1
C[C@@H]1C[C@H](O)c2ncnc(N3CCN(C(=O)[C@@H](c4ccc(C(F)(F)F)c(F)c4)[C@@H]4CCCN4)CC3)c21 [Example 47, (S)-2-(3-fluoro-4-(trifluoromethyl)phcnyl)-1-(4-((5R,7S)-7-hydroxy-5-methyl-6,7-dihydro-5H-cyclopenta[d]pyrimidin-4-yl)piperazin-1-yl)-2-((S)-pyrrolidin-2-yl)ethanone] | < 1
C[C@@H]1C[C@@H](O)c2ncnc(N3CCN(C(=O)[C@@H](c4ccc(Br)s4)[C@@H]4CCCN4)CC3)c21 [Example 48, (S)-2-(5-bromothiophen-2-yl)-1-(4-((5R,7R)-7-hydroxy-5-methyl-6,7-dihydro-5H-cyclopenta[d]pyrimidin-4-yl)piperazin-1-yl)-2-((S)-pyrrolidin-2-yl)ethanone] | < 1
C[C@@H]1C[C@@H](O)c2ncnc(N3CCN(C(=O)[C@@H](c4ccc(Br)s4)[C@@H]4CCCN4C)CC3)c21 [Example 49, (S)-2-(5-bromothiophen-2-yl)-1-(4-((5R,7R)-7-hydroxy-5-methyl-6,7-dihydro-5H-cyclopenta[d]pyrimidin-4-yl)piperazin-1-yl)-2-((S)-1-methylpyrrolidin-2-yl)ethanone] | < 1
C[C@@H]1C[C@@](C)(O)c2ncnc(N3CCN(C(=O)[C@@H](c4ccc(C(F)(F)F)cc4)[C@@H]4CCCN4C)CC3)c21 [Example 50, (S)-1-(4-((5R,7R)-7-hydroxy-5,7-dimethyl-6,7-dihydro-5H-cyclopenta[d]pyrimidin-4-yl)piperazin-1-yl)-2-((S)-1-methylpyrrolidin-2-yl)-2-(4-(trifluoromethyl)phenyl)ethanone] | < 1
C[C@@H]1C[C@@H](O)c2ncnc(N3CCN(C(=O)[C@@H](c4ccc(C#N)cc4)[C@@H]4CCCN4)CC3)c21 [Example 51, 4-((S)-2-(4-((5R,7R)-7-hydroxy-5-methyl-6,7-dihydro-5H-cyclopenta[d]pyrimidin-4-yl)piperazin-1-yl)-2-oxo-1-((S)-pyrrolidin-2-yl)ethyl)benzonitrile] | < 1
C[C@@H]1C[C@@H](O)c2ncnc(N3CCN(C(=O)[C@@H](c4ccc(C#N)cc4)[C@@H]4CCCN4C)CC3)c21 [Example 52, 4-((S)-2-(4-((5R,7R)-7-hydroxy-5-methyl-6,7-dihydro-5H-cyclopenta[d]pyrimidin-4-yl)piperazin-1-yl)-1-((S)-1-methylpyrrolidin-2-yl)-2-oxoethyl)benzonitrile] | < 1
C[C@@H]1C[C@@](C)(O)c2ncnc(N3CCN(C(=O)[C@@H](c4ccc(Cl)cc4)[C@@H]4CCC(C)(C)N4)CC3)c21 [Example 53, (S)-2-(4-chlorophenyl)-2-((S)-5,5-dimethylpyrrolidin-2-yl)-1-(4-((5R,7R)-7-hydroxy-5,7-dimethyl-6,7-dihydro-5H-cyclopenta[d]pyrimidin-4-yl)piperazin-1-yl)ethanone] | < 1
C[C@@H]1C[C@@H](O)c2ncnc(N3CCN(C(=O)[C@@H](c4ccc(C(F)(F)F)cc4)[C@@H]4CCC(C)(C)N4)CC3)c21 [Example 54, (S)-2-((S)-5,5-dimethylpyrrolidin-2-yl)-1-(4-((5R,7R)-7-hydroxy-5-methyl-6,7-dihydro-5H-cyclopenta[d]pyrimidin-4-yl)piperazin-1-yl)-2-(4-(trifluoromethyl)phenyl)ethanone] | < 1
C[C@@H]1C[C@H](O)c2ncnc(N3CCN(C(=O)[C@@H](c4ccc(C(F)(F)F)cc4)[C@@H]4CCC(C)(C)N4)CC3)c21 [Example 55, (S)-2-((S)-5,5-dimethylpyrrolidin-2-yl)-1-(4-((5R,7S)-7-hydroxy-5-methyl-6,7-dihydro-5H-cyclopenta[d]pyrimidin-4-yl)piperazin-1-yl)-2-(4-(trifluoromethyl)phenyl)ethanone] | < 1
C[C@@H]1C[C@@H](O)c2ncnc(N3CCN(C(=O)[C@@H](c4ccc(Br)cc4)[C@@H]4CCC(C)(C)N4)CC3)c21 [Example 56, (S)-2-(4-bromophenyl)-2-((S)-5,5-dimethylpyrrolidin-2-yl)-1-(4-((5R,7R)-7-hydroxy-5-methyl-6,7-dihydro-5H-cyclopenta[d]pyrimidin-4-yl)piperazin-1-yl)ethanone] | < 1
C[C@@H]1C[C@H](O)c2ncnc(N3CCN(C(=O)[C@@H](c4ccc(Br)cc4)[C@@H]4CCC(C)(C)N4)CC3)c21 [Example 57, (S)-2-(4-bromophenyl)-2-((S)-5,5-dimethylpyrrolidin-2-yl)-1-(4-((5R,7S)-7-hydroxy-5-methyl-6,7-dihydro-5H-cyclopenta[d]pyrimidin-4-yl)piperazin-1-yl)ethanone] | < 1
C[C@@H]1C[C@@H](O)c2ncnc(N3CCN(C(=O)[C@@H](c4ccc(C(F)(F)F)cc4F)[C@@H]4CCC(C)(C)N4)CC3)c21 [Example 58, (S)-2-((S)-5,5-dimethylpyrrolidin-2-yl)-2-(2-fluoro-4-(trifluoromethyl)phenyl)-1-(4-((5R,7R)-7-hydroxy-5-methyl-6,7-dihydro-5H-cyclopenta[d]pyrimidin-4-yl)piperazin-1-yl)ethanone] | < 1
C[C@@H]1C[C@H](O)c2ncnc(N3CCN(C(=O)[C@@H](c4ccc(C(F)(F)F)cc4F)[C@@H]4CCC(C)(C)N4)CC3)c21 [Example 59, (S)-2-((S)-5,5-dimethylpyrrolidin-2-yl)-2-(2-fluoro-4-(trifluoromethyl)phenyl)-1-(4-((5R,7S)-7-hydroxy-5-methyl-6,7-dihydro-5H-cyclopenta[d]pyrimidin-4-yl)piperazin-1-yl)ethanone] | < 1
C[C@@H]1C[C@@H](F)c2ncnc(N3CCN(C(=O)[C@@H](c4ccc(C(F)(F)F)cc4)[C@@H]4CCC(C)(C)N4)CC3)c21 [Example 60, (S)-2-((S)-5,5-dimethylpyrrolidin-2-yl)-1-(4-((5R,7R)-7-fluoro-5-methyl-6,7-dihydro-5H-cyclopenta[d]pyrimidin-4-yl)piperazin-1-yl)-2-(4-(trifluoromethyl)phenyl)ethanone] | < 1
C[C@@H]1C[C@@H](F)c2ncnc(N3CCN(C(=O)[C@@H](c4ccc(Br)cc4)[C@@H]4CCC(C)(C)N4)CC3)c21 [Example 61, (S)-2-(4-bromophenyl)-2-((S)-5,5-dimethylpyrrolidin-2-yl)-1-(4-((5R,7R)-7-fluoro-5-methyl-6,7-dihydro-5H-cyclopenta[d]pyrimidin-4-yl)piperazin-1-yl)ethanone] | < 1
CO[C@@H]1C[C@@H](C)c2c1ncnc2N1CCN(C(=O)[C@@H](c2ccc(C(F)(F)F)cc2)[C@@H]2CCCN2)CC1 [Example 62, (S)-1-(4-((5R,7R)-7-methoxy-5-methyl-6,7-dihydro-5H-cyclopenta[d]pyrimidin-4-yl)piperazin-1-yl)-2-((S)-pyrrolidin-2-yl)-2-(4-(trifluoromethyl)phenyl)ethanone] | < 1
CO[C@@H]1C[C@@H](C)c2c1ncnc2N1CCN(C(=O)[C@@H](c2ccc(Cl)cc2)[C@@H]2CCC(C)(C)N2)CC1 [Example 63, (S)-2-(4-chlorophenyl)-2-((S)-5,5-dimethylpyrrolidin-2-yl)-1-(4-((5R,7R)-7-methoxy-5-methyl-6,7-dihydro-5H-cyclopenta[d]pyrimidin-4-yl)piperazin-1-yl)ethanone] | < 1
CC1(C)CC[C@@H]([C@@H](C(=O)N2CCN(c3ncnc4c3[C@H](CO)C[C@H]4O)CC2)c2ccc(Cl)cc2)N1 [Example 64, (S)-2-(4-chlorophenyl)-2-((S)-5,5-dimethylpyrrolidin-2-yl)-1-(4-((5R,7R)-7-hydroxy-5-(hydroxymethyl)-6,7-dihydro-5H-cyclopenta[d]pyrimidin-4-yl)piperazin-1-yl)ethanone] | < 1
